Laboratory results reported in paper PMC12040169 (PLOS Biology, 2025).
This is one part of the list.

These compounds were tested on T1, CTL2-GFP (C. trachomatis L2/434/Bu, GFP-expressing). Conditions: bulk GFP, single well; 28.5 h, 10 µM; inhibitor.
T1 construct: L2/434/Bu, GFP-expressing
Design: species or system HeLa; Intracellular C. trachomatis growth in HeLa cells, bulk GFP fluorescence relative to DMSO

SMILES | % of control remaining
CCOc1ccc(OCC)c2c1n(C)c(SC)[n+]2C [CBK005720G] | 23.7715%
CS(=O)(=O)N(Cc1ccc(Cl)cc1)c1ccc(C(=O)Nc2ccccc2C(F)(F)F)cc1 [CBK263988] | 100%
Cc1cc(NC(=O)C2CCN(c3ncccc3C#N)CC2)no1 [CBK305689] | 122.2%
O=C(CCCOc1ccccc1)Nc1cccc(N2CCNCC2)c1 [CBK028290T] | 119.564%
Cc1nc(C)c(-c2cnc(NS(=O)(=O)c3ccc(Cl)cc3)nc2)s1 [CBK005935] | 100%
CN(C)C(=O)Cn1c(=O)n(Cc2cccs2)c2ncccc21 [CBK283902] | 153.209%
Cc1ccc(-c2nnc3s/c(=C\c4ccc([N+](=O)[O-])cc4)c(=O)n23)cc1 [CBK264882] | 116.454%
O=c1c(Oc2ccc3ccccc3c2)c(C(F)(F)F)oc2c(CN3CCOCC3)c(O)ccc12 [CBK264487] | 132.532%
CCCCCc1c(C)nc(-c2ccccn2)nc1O [CBK017441] | 76.106%
COCc1nnc(NS(=O)(=O)c2ccc(Br)cc2)s1 [CBK045526] | 120.802%
Cc1cccc(OCC(C)NC(=O)N2CCCC2c2cnn(C)c2)c1 (stereo not drawn) [CBK304100] | 132.884%
CC1(C)CC(/N=C(\c2ccccc2)c2ccc(O)cc2O)CC(C)(C)N1 [CBK262004] | 96.4073%
O=C(NCCNCc1ccccc1)c1ccccc1 [CBK012505] | 99.8821%
Cc1ccccc1CSCC(=O)Nc1c[nH]c(=O)[nH]c1=O [CBK269790] | 105.423%
CC(C)C(CCC(=O)Nc1ccccc1[N+](=O)[O-])C(=O)O (stereo not drawn) [CBK268356] | 144.735%
CC(C)(C)Nc1c(C2CCCN(C(=O)C3CC3)C2)nc2ccccn12 (stereo not drawn) [CBK284759] | 132.816%
O=C(NCc1cccnc1)C(=O)Nc1cc2c3c(c1)CCC(=O)N3CCC2 [CBK287728] | 99.639%
CCCN(CC1CC1)C(=O)Cn1c([C@@H]2CCCO2)cc2cccnc21 [CBK282871] | 91.1219%
O=C(CNS(=O)(=O)c1ccc(Cl)c(Cl)c1Cl)N1CCOCC1 [CBK034472] | 101.662%
O=C1C=C(c2ccc([N+](=O)[O-])cc2)Nc2nonc2N1 [CBK261487] | 108.809%
Cc1cn2nc(N3CCN(S(=O)(=O)c4ccccc4[N+](=O)[O-])CC3)sc2n1 [CBK298288] | 103.709%

SMILES | % of control remaining
Cn1c(CSCc2ccccc2)nnc1SCC(=O)c1ccc(Br)cc1 [CBK266565] | 140.932%
Cc1ccc(C2CCCN2C(=O)c2ccc(=O)n(CC(=O)Nc3ccc(F)cc3)c2)cc1C (stereo not drawn) [CBK286088] | 99.0435%
Cc1ccc2[nH]c(C3CCCCN3C(=O)c3cscn3)nc2c1 (stereo not drawn) [CBK283999] | 89.0479%
COCCNc1nccnc1-c1cnc(OC)nc1OC [CBK088558] | 102.127%
Cc1ccc(C2(O)CCN(Cc3cn(C)nc3C)CC2)cc1 [CBK282753] | 106.409%
COc1ccccc1-c1nc2ccccn2c1CO [CBK173210] | 106.736%
Cn1c(=O)c2c(ncn2Cc2ccc(C#N)cc2)n(C)c1=O [CBK134217] | 77.8198%
O=S(=O)(Nc1cccc(Cl)c1)c1ccc(OC(F)(F)F)cc1 [CBK044769] | 72.6764%
O=[N+]([O-])c1ccc(O)c(C(C#Cc2ccccc2)N2CCOCC2)c1 (stereo not drawn) [CBK262741] | 124.272%
COCCNC(=O)c1sc2ncn(CC(=O)Nc3ccccc3OC)c(=O)c2c1C [CBK071846] | 115.521%
Cn1c(Cc2nn(C)c(=O)c3ccccc23)nnc1SCC(=O)C(C)(C)C [CBK010985] | 81.6258%
CC(C)N(C)C(=O)Cc1csc(N)n1 [CBK014608] | 177.947%
Cc1ccc(OCC(=O)Nc2sc3c(c2C(N)=O)CCCCC3)c([N+](=O)[O-])c1 [CBK268148] | 119.889%
C=C(C)CN1CCN(C(=O)C2Cc3cc(Cl)ccc3O2)CC1 (stereo not drawn) [CBK282639] | 133.421%
Oc1cccnc1CCc1ccccc1 [CBK026334C] | 106.509%
CC(=O)c1ccc(-c2cnc(N)c(N3CCN(C)CC3)n2)s1 [CBK063432] | 195.188%
O=C(CCc1ccc(O)c(O)c1)NNC(=S)Nc1ccccc1C(F)(F)F [CBK267104] | 161.866%
Cc1ccc(S(=O)(=O)N(CC(=O)Nc2ccc3c(c2)OCCO3)Cc2ccccc2F)cc1 [CBK265157] | 103.343%
CCC(C)(C)c1ccc(S(=O)(=O)Nc2ccc3ncsc3c2)cc1 [CBK043490] | 69.4145%
Cc1cccc(CNCC2CCN(C(=O)OC(C)(C)C)CC2)n1 [CBK056713] | 81.6248%
Nc1nc(N)nc(-c2ccc(-c3nc(N)nc(N)n3)cc2)n1 [CBK261494] | 93.0698%

Not a retest: an excerpt of the list.
SMILES | % of control remaining
Cc1ccc(S(=O)(=O)N(CC(=O)Nc2ccc3c(c2)OCCO3)Cc2ccccc2F)cc1 [CBK265157] | 103.343%
CCC(C)(C)c1ccc(S(=O)(=O)Nc2ccc3ncsc3c2)cc1 [CBK043490] | 69.4145%

Continuation.

SMILES | % of control remaining
Cc1sc2ncnc(NCCOCCO)c2c1C [CBK265907] | 177.004%
O=S(=O)(c1ccc(F)cc1)N1CCCC1c1cccc(Cc2ccc(F)cc2)n1 (stereo not drawn) [CBK286249] | 96.7859%
O=[N+]([O-])c1c(N2CCN(CCO)CC2)ccc2nonc12 [CBK264397] | 107.772%
N#CCCn1cc(C(=O)N2CCCCC2)c(-c2cc3ccccc3o2)n1 [CBK306206] | 150.64%
Cn1cc(CCNC(=O)NC2CCN(c3ncccn3)CC2)cn1 [CBK305612] | 108.693%
COc1cc(NC(=O)CCN2CCN(C)CC2)cc(OC)c1 [CBK264193] | 100%
Cc1ccc(-n2c3c(cc(C(=O)NCCCN4CCOCC4)c2=O)C(=O)CCC3)cc1 [CBK266094] | 156.031%
CCc1nnc(NC(=O)c2cccc(F)c2)s1 [CBK273362] | 126.592%
Cc1cc(CNC(=O)N(C)C2CCN(C)C2)no1 (stereo not drawn) [CBK155992] | 107.545%
COc1ccc([C@@]23CC[C@@H](NC(=O)Nc4cccc(Cl)c4)C[C@@H]2CN(C)C3)cc1OC [CBK081375T] | 118.818%
Cc1cc(-c2cnoc2C2CCCN(C(=O)c3cccs3)C2)on1 (stereo not drawn) [CBK284480] | 82.0694%
CC(NC(=O)c1nn(-c2ccc(F)cc2)c2c1CCCC2)c1ccc2c(c1)OCCO2 (stereo not drawn) [CBK296682] | 77.033%
COc1ccccc1-c1ccc(CC2(C(=O)NCC3CCCCC3)CCOCC2)cc1 [CBK286519] | 101.647%
O=C(O)CCNS(=O)(=O)c1ccc(I)cc1 [CBK268968] | 110.582%
CCC(=O)NC(N(Cc1ccccc1)Cc1ccccc1)C(Cl)(Cl)Cl (stereo not drawn) [CBK261022] | 76.337%
OCc1cccc2c3c(n(Cc4ccccc4)c12)CCCC3 [CBK004693] | 87.646%
Cc1nc2ccccc2n1CC(O)COc1ccccc1 (stereo not drawn) [CBK288084] | 103.539%
OCCc1ccc(Nc2cc(-c3ccco3)ncn2)cc1 [CBK090771] | 174.383%
NC(=O)c1ccccc1NC(=O)CN1CCN(Cc2cccc(F)c2)CC1 [CBK270292] | 148.121%
O[C@H](CNCc1ccccc1)COc1cccc2c1C1CCC2CC1 [CBK000370] | 141.355%
CCNc1cc2ccccc2c(-c2ccc3c(c2)OCCCO3)n1 [CBK089641] | 134.97%

Of the compounds above, two contain a furan ring, fused or not:
SMILES | % of control remaining
N#CCCn1cc(C(=O)N2CCCCC2)c(-c2cc3ccccc3o2)n1 [CBK306206] | 150.64%
OCCc1ccc(Nc2cc(-c3ccco3)ncn2)cc1 [CBK090771] | 174.383%

(cont.)

SMILES | % of control remaining
FC(F)(F)Oc1cccc(-c2cncc(NCc3cccs3)n2)c1 [CBK065909] | 127.39%
N#Cc1ccccc1CSc1nc2ccc([N+](=O)[O-])cc2[nH]1 [CBK269589] | 145.587%
NS(=O)(=O)c1ccc2nc(NC(=O)c3ccc(N4C(=O)CCC4=O)cc3)sc2c1 [CBK291192] | 73.6595%
CCCCN(C)c1c(C)nc2c(Oc3ncccn3)cccn12 [CBK147190] | 124.047%
COc1cc(NC(=O)N2CCN(c3cc(C(F)(F)F)ccn3)CC2)cc(OC)c1OC [CBK162349] | 104.223%
COc1ccc(Cl)cc1S(=O)(=O)N1CCC(C(=O)NCCO)CC1 [CBK270002] | 116.524%
Fc1ccc(CSc2nnc(-c3ccccn3)[nH]2)cc1 [CBK270074] | 89.3739%
COc1cccc(C2C(C(=O)c3ccc(Cl)cc3)=C(O)C(=O)N2CCCN2CCOCC2)c1 (stereo not drawn) [CBK264865] | 105.786%
COC(=O)c1c(NC(=O)C(=O)NCc2ccccn2)sc2c1CCC2 [CBK269431] | 135.065%
Cc1c(CN2CCCC(n3cnc4cc(F)ccc43)C2)cnn1C (stereo not drawn) [CBK284478] | 147.501%
O=C(Nc1ccsc1C(=O)O)c1ccccc1Cl [CBK152440] | 109.712%
COc1ccc(-c2nc3ccccc3o2)cc1NC(=O)C(C)Oc1ccc(Cl)cc1Cl (stereo not drawn) [CBK266787] | 86.5412%
OCCN(Cc1cccnc1)Cc1cccn1Cc1ccccc1F [CBK282945] | 129.537%
O=C(NCCCn1ccnc1)c1ccccc1C(=O)c1ccccc1 [CBK262954] | 106.907%
O=C(NCc1ccccn1)c1nn[nH]c1Nc1cccc(Cl)c1 [CBK288030] | 126.119%
CN1CCc2c(C#N)c(N)n(N)c(=S)c2C1 [CBK264055] | 100%
COc1cc(OCc2ccccc2)ccc1CN1CCN(Cc2ccccc2)CC1 [CBK074766] | 137.127%
CC(=O)N1CCc2c(sc3nc(N)c(C(=O)NCCc4ccc(F)cc4)c(C(F)(F)F)c23)C1 [CBK269176] | 128.467%
